# According to the supplement of paper PMC12823440, “Inhibitors supercharge kinase turnover through native proteolytic circuits” (Nature, 2025):
# The chains behind the UniProt entries cited, without tags or fusion partners. Where a name states a change or a piece, a line headed by the entry shows the natural chain unless it says otherwise.
# UniProt P10398: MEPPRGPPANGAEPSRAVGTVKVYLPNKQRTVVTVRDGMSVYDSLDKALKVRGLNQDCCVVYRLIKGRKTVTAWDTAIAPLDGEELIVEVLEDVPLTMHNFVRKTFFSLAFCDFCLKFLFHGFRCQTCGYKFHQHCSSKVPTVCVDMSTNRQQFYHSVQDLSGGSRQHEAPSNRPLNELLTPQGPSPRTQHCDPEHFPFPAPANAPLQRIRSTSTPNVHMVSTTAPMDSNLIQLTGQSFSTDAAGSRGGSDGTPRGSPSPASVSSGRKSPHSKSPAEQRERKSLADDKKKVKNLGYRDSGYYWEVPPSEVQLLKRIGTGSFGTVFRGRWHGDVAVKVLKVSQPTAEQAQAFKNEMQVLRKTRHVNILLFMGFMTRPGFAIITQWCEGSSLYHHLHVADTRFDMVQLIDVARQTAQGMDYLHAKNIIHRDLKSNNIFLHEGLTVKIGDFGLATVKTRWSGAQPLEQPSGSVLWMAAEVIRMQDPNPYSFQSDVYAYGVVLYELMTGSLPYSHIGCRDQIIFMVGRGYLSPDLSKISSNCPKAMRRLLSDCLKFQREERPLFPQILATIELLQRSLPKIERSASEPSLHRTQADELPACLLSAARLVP
# Structures can show the parent of a compound that is named as a salt. The list shows a part of the results. Hit calls seldom repeat between salt and free forms of one compound.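 Kinases were expressed as nanoluciferase fusions in K562 cells and luminescence was read every 4 h between 2 and 18 h as percent of control, DMSO set to 100% and a positive control to 0%. A time point counts as decreased when the signal drops significantly (2 sigma). The hit call is the authors' own, does not follow from the count of time points alone, and its rule is not shown.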
# Molecular target: ARAF (UniProt P10398)
# Assay: kinase-Nluc reporter destabilization hit call (1 = scored as downregulated) (binary); higher = compound decreases kinase abundance
# Settings: K562; 2-18 h
row,SMILES,kinase-Nluc reporter destabilization hit call
1,CCCCNc1nc(N)c2[nH]c(=O)n(Cc3ccc(C)nc3)c2n1 (10 µM),inactive: 0
2,N#CC(C#N)=Cc1ccc([N+](=O)[O-])c(O)c1 (10 µM),inactive: 0
3,O=c1[nH]c2ccccc2n1C1CCN(Cc2ccc(-c3[nH]c4cc5ncnc5cc4nc3-c3ccccc3)cc2)CC1 [AKT inhibitor VIII] (2.5 µM),inactive: 0
4,CC(=O)Oc1ccc(/C=C/c2cc(OC(C)=O)cc(OC(C)=O)c2)cc1 [Triacetylresveratrol] (10 µM),inactive: 0
5,O=C1c2ccccc2C(=O)c2c1cccc2-c1cnn(C2CCNCC2)c1 [PDK4-IN-1 (hydrochloride)] (10 µM),inactive: 0
6,CC1C(=O)OC2C(O)C34C5OC(=O)C3(OC3OC(=O)C(O)C34C(C(C)(C)C)C5O)C12O (stereo not drawn) [Ginkgolide C] (10 µM),inactive: 0
7,O=Cc1cn(Cc2ccc(Cl)cc2)c2ccccc12 [Oncrasin-1] (10 µM),inactive: 0
8,N#CC(C#N)=NNc1cccc(Cl)c1 (2.5 µM),inactive: 0
9,CC(C)=CC[C@@H](OC(=O)CC(C)(C)O)C1=CC(=O)c2c(O)ccc(O)c2C1=O [β-Hydroxyisovalerylshikonin] (2.5 µM),inactive: 0
10,O=c1ccc2cc(O[C@@H]3O[C@H](CO)[C@@H](O)[C@H](O)[C@H]3O)c(O)cc2o1 [Esculin] (10 µM),inactive: 0
11,C[C@H]1CC[C@]2(NC1)O[C@H]1C[C@H]3[C@@H]4CC[C@H]5C[C@@H](O)CC[C@]5(C)[C@H]4CC[C@]3(C)[C@H]1[C@@H]2C [Tomatidine] (2 µM),inactive: 0
12,C/C(O)=C(\C#N)C(=O)Nc1cc(Br)ccc1Br (10 µM),inactive: 0
13,COc1ccc2c(c[n+](C)c3c4cc5c(cc4ccc23)OCO5)c1OC [Chelerythrine (chloride)] (10 µM),inactive: 0
14,COc1ccc2c(c1)[nH]c1c(C)nccc12 [Harmine] (10 µM),inactive: 0
15,CCCCCCCCCCCCCCCCOC[C@H](COP(=O)([O-])OCC[N+](C)(C)C)OC(C)=O (10 µM),inactive: 0
16,O=C(O)c1sc2cc(Cl)ccc2c1Cl (10 µM),inactive: 0
17,C[S+]([O-])/C=C/CCN=C=S (stereo not drawn) [Sulforaphene] (10 µM),inactive: 0
18,Cn1cc(C2=C(c3cn(C4CCN(Cc5ccccn5)CC4)c4ccccc34)C(=O)NC2=O)c2ccccc21 [Enzastaurin] (10 µM),inactive: 0
19,CCN1CCN(C(=O)Cc2ccc(Nc3ncc(F)c(Nc4ccc(C(=O)Nc5ccccc5Cl)cc4)n3)cc2)CC1 (2.5 µM),inactive: 0
20,Cc1n[nH]cc1-c1cc2nc([C@@H]3CC4CCN3CC4)[nH]c(=O)c2s1 [Simurosertib] (2.5 µM),inactive: 0
21,O=C(N[C@@H](COc1ccc2[nH]c(=O)[nH]c2c1)c1ccccc1)c1cccn(Cc2ccc(F)c(F)c2)c1=O (2.5 µM),inactive: 0
22,CCOC(=O)c1c(/C(C#N)=C\N)c2ccc(Cl)c(Cl)c2n1C (10 µM),inactive: 0
23,C[C@H](CCC(=O)O)C[C@H](C)C[C@H](C)C(=O)/C=C(\O)[C@H](C)C[C@H](C)C/C=C/[C@@H](C)[C@@H](O)[C@@H](C)[C@@H](O)C[C@@H]1CC[C@@](C)([C@H]2CC[C@@](C)([C@@H](C)O)O2)O1 [Ionomycin (calcium)] (2.5 µM),inactive: 0
24,CC(C)(C)c1cc(C=C(C#N)C#N)cc(Br)c1O (2.5 µM),inactive: 0
25,C=CC(=O)N[C@H]1C=C(C)c2c(-c3cnc4ccccc4c3)c3c(N)ncnc3n2C1 (10 µM),inactive: 0
26,COC[C@H]1OC(=O)c2coc3c2[C@@]1(C)C1=C(C3=O)[C@@H]2CCC(=O)[C@@]2(C)C[C@H]1OC(C)=O [Wortmannin] (2.5 µM),inactive: 0
27,CC(=O)c1c(O)c(C)c(O)c(Cc2c(O)c3c(c(C(=O)/C=C/c4ccccc4)c2O)OC(C)(C)C=C3)c1O [Rottlerin] (2 µM),inactive: 0
28,NCCc1cn(S(=O)(=O)c2c(Cl)nc3sccn23)c2ccccc12 (10 µM),inactive: 0

# Entries above that contain a tert-butyl group (2):
row,SMILES,kinase-Nluc reporter destabilization hit call
6,CC1C(=O)OC2C(O)C34C5OC(=O)C3(OC3OC(=O)C(O)C34C(C(C)(C)C)C5O)C12O (stereo not drawn) [Ginkgolide C] (10 µM),inactive: 0
24,CC(C)(C)c1cc(C=C(C#N)C#N)cc(Br)c1O (2.5 µM),inactive: 0
